In US8420888B2, “Chloroplast transit peptides for efficient targeting of DMO and uses thereof” (Monsanto Technology LLC, priority 2007, dated 2013):

System: Arabidopsis Leaf
Experiment: Western blot analysis of CTP-DMO constructs in transgenic Arabidopsis leaf
Type: in vivo, Arabidopsis thaliana

Molecule | processing and localization of DMO (transformed Arabidopsis, western blot) | # of Bands (Arabidopsis Leaf, immunoreactive DMO bands)
RbcSnoc-CTP: Pea Rubisco small subunit CTP lacking the 27 aa coding sequence, SEQ ID NO:2 (MASMISSSAVTTVSRASRGQSAAMAPFGGLKSMTGFPVRKVNTDITSITSNGGRVKC; listed as Pisum sativum) | properly processed DMO localized to the chloroplast | –
RbcS CTP: Pea Rubisco small subunit CTP including the 27 aa coding sequence, SEQ ID NO:1 (protein, listed as Pisum sativum) MASMISSSAVTTVSRASRGQSAAMAPFGGLKSMTGFPVRKVNTDITSITSNGGRVKCMQVWPPIGKKKFETLSYLPPLTRDSRA | – | two
